These are yes or no findings as the source states them, for the method shown. Some results given as binding are weak or reduced against the parent protein; the word gives no strength.
Target: T1, Mms4 of the wild-type Mus81–Mms4 complex (budding yeast) (UniProt P38257)
T1 sequence: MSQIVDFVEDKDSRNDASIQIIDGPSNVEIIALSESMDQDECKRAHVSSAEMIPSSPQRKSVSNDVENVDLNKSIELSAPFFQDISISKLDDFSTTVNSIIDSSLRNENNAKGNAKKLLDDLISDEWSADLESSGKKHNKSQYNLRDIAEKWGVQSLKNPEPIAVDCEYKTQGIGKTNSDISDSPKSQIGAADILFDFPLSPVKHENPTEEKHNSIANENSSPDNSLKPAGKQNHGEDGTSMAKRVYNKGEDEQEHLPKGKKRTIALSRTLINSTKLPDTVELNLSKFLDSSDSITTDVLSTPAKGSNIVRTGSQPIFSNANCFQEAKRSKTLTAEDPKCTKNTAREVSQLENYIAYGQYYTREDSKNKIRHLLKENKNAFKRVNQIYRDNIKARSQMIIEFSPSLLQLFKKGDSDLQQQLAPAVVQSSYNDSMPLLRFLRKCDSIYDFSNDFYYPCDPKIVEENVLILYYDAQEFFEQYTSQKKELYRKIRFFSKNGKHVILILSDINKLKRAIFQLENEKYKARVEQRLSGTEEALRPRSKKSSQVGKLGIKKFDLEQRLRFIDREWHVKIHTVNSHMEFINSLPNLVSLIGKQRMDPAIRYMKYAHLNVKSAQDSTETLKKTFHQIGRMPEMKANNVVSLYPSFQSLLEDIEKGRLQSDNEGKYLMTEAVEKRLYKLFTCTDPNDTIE
Assay: co-purification; Mus81 (or derivative) and Mms4 (or Mms4_(Δ40N)) co-expressed in E. coli; phosphocellulose, Ni2+-NTA, glycerol gradient sedimentation (500-mM NaCl); SDS-PAGE, Coomassie blue

binding: binds
B1: Mus81 of the wild-type Mus81–Mms4 complex (protein, UniProt Q04149 1-632)
chain: MELSSNLKDLYIEWLQELVDGLTPKQEQLKIAYEKAKRNLQNAEGSFYYPTDLKKVKGIGNTIIKRLDTKLRNYCKIHHISPVEAPSLTQTSSTRPPKRTTTALRSIVNSCENDKNEAPEEKGTKKRKTRKYIPKKRSGGYAILLSLLELNAIPRGVSKEQIIEVAGKYSDHCMTPNFSTKEFYGAWSSIAALKKHSLVLEEGRPKRYSLTEEGVELTKSLKTADGISFPKENEEPNEYSVTRNESSEFTANLTDLRGEYGKEEEPCDINNTSFMLDITFQDLSTPQRLQNNVFKNDRLNSQTNISSHKLEEVSDDQTVPDSALKAKSTIKRRRYNGVSYELWCSGDFEVFPIIDHREIKSQSDREFFSRAFERKGMKSEIRQLALGDIIWVAKNKNTGLQCVLNTIVERKRLDDLALSIRDNRFMEQKNRLEKSGCEHKYYLIEETMSGNIGNMNEALKTALWVILVYYKFSMIRTCNSDETVEKIHALHTVISHHYSQKDLIVIFPSDLKSKDDYKKVLLQFRREFERKGGIECCHNLECFQELMGKGDLKTVGELTIHVLMLVKGISLEKAVAIQEIFPTLNKILMAYKTCSSEEEAKLLMFNVLGDAPGAKKITKSLSEKIYDAFGKL
